No constants are given. Whether binding was seen depends on the method and setting. For some of these results: In cells and extracts the contact can be indirect. Some binding calls cover weakened binding; strength is not graded here.
T1: OMI/HtrA2, endogenous in Oli-neu cells, processed form (36 kDa / 37 kDa) (mouse (endogenous in Oli-neu)) (UniProt Q9JIY5)
T1 sequence: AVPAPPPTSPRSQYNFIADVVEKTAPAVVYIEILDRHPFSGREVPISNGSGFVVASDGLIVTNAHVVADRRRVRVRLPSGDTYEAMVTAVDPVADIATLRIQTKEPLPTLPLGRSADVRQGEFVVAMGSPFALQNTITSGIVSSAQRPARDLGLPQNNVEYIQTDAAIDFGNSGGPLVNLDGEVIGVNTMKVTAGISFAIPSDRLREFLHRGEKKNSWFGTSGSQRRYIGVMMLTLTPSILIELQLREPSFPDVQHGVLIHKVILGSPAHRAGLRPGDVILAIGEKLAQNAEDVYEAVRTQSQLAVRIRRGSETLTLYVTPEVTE

Chains of the proteins cited; added tags and fusions are not shown. Residues count along the entry.
UniProt Q8VHY0, residues 30-2327: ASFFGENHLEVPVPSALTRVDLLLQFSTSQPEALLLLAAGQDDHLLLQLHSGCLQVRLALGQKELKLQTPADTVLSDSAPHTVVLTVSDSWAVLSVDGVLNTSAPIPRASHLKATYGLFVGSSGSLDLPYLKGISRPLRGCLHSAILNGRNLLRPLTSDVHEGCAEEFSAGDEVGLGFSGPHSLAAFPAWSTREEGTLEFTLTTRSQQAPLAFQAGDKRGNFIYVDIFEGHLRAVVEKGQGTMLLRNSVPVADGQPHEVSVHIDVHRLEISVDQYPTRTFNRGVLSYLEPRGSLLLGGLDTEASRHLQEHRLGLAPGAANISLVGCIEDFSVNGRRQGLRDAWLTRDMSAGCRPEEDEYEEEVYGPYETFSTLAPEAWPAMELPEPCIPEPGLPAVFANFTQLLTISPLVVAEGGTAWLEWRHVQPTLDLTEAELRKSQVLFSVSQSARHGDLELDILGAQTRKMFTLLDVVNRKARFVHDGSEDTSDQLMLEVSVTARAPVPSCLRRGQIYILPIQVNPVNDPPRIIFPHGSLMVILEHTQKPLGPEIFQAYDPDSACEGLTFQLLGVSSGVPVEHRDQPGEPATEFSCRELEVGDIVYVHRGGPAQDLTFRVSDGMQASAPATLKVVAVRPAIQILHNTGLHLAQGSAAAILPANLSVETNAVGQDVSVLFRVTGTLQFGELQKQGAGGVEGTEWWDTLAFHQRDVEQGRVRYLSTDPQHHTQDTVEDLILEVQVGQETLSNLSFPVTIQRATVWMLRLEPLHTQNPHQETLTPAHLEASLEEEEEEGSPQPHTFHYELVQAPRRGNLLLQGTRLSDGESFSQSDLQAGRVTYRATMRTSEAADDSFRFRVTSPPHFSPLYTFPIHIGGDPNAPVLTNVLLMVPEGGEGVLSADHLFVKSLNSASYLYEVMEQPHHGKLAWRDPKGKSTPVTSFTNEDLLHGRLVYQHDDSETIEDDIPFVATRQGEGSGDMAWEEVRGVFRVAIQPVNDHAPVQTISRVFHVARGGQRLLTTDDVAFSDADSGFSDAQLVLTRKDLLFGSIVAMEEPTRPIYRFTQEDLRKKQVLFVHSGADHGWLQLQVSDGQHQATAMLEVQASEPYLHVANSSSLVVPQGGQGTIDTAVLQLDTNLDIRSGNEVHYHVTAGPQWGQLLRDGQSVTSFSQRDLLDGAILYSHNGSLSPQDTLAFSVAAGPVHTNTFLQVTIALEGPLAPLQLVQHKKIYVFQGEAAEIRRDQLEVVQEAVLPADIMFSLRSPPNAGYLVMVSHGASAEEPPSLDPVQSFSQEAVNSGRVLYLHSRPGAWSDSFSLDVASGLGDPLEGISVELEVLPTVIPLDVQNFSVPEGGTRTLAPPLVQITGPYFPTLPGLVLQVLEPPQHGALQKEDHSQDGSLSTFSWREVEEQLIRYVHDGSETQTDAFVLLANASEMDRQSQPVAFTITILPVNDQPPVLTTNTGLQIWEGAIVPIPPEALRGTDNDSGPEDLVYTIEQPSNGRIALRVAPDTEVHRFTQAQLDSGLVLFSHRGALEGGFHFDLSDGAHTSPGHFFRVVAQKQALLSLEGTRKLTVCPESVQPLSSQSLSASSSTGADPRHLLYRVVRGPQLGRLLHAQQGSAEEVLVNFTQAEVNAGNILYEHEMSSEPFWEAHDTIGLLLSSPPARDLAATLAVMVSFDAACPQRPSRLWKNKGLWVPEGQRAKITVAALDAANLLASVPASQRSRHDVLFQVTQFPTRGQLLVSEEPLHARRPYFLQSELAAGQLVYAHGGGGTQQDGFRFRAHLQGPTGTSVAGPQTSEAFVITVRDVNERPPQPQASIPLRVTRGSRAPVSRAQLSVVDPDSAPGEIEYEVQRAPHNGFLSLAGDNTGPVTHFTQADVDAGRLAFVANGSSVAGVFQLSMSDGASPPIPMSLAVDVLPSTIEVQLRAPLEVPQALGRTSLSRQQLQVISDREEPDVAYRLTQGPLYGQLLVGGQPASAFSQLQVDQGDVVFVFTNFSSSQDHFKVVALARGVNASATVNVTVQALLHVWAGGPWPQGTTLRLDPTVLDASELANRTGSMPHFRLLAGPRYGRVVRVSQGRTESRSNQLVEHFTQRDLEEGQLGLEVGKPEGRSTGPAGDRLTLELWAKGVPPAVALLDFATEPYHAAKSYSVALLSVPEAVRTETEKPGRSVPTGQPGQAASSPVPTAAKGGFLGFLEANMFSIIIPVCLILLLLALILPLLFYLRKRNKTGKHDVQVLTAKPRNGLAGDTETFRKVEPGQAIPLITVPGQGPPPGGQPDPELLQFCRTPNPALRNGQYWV


Experiments:
[1] = molecular target: T1, OMI/HtrA2, endogenous in Oli-neu cells, processed form (36 kDa / 37 kDa) (mouse (endogenous in Oli-neu)); assay: co-IP; Oli-neu lysate (50 mM Tris pH 7.4, 150 mM NaCl, 1% Triton X-100, in some cases 30 mM n-octyl-glucoside); IP with polyclonal OMI/HtrA2 antibody on protein A- or G-Sepharose, overnight at 4°C; blot for NG2 and COX-I
[2] = molecular target: NG2 proteoglycan (Nerve-glial antigen 2, chondroitin sulfate proteoglycan 4), endogenous in Oli-neu cells (mouse (endogenous in Oli-neu)) (UniProt Q8VHY0); assay: co-IP; Oli-neu lysate (50 mM Tris pH 7.4, 150 mM NaCl, 1% Triton X-100, in some cases 30 mM n-octyl-glucoside); IP with monoclonal NG2 antibody coupled to CNBr-activated Sepharose; blot for OMI/HtrA2
[3] = molecular target: NG2 proteoglycan (Nerve-glial antigen 2, chondroitin sulfate proteoglycan 4), endogenous in Oli-neu cells (mouse (endogenous in Oli-neu)) (UniProt Q8VHY0); assay: CoIP-ELISA; NG2 monoclonal antibody on 96 well plates holds living Oli-neu cells by NG2; cells stressed with H2O2 (25–500 μM; 4 h in the methods, five hours in the legend), then lysed; OMI/HtrA2 bound to captured NG2 detected with polyclonal OMI/HtrA2 antibody and HRP antibody

binding [1] | binding [2] | binding [3] | Molecule
no binding | – | – | COX-I, mitochondrial membrane protein, endogenous in Oli-neu cells (from UniProt P00397 1-514)
binds | – | – | NG2 proteoglycan (Nerve-glial antigen 2, chondroitin sulfate proteoglycan 4), endogenous in Oli-neu cells (from UniProt Q8VHY0 30-2327)
– | binds | binds | OMI/HtrA2, endogenous in Oli-neu cells, processed form (36 kDa / 37 kDa) (enzyme, UniProt Q9JIY5 134-458) AVPAPPPTSPRSQYNFIADVVEKTAPAVVYIEILDRHPFSGREVPISNGSGFVVASDGLIVTNAHVVADRRRVRVRLPSGDTYEAMVTAVDPVADIATLRIQTKEPLPTLPLGRSADVRQGEFVVAMGSPFALQNTITSGIVSSAQRPARDLGLPQNNVEYIQTDAAIDFGNSGGPLVNLDGEVIGVNTMKVTAGISFAIPSDRLREFLHRGEKKNSWFGTSGSQRRYIGVMMLTLTPSILIELQLREPSFPDVQHGVLIHKVILGSPAHRAGLRPGDVILAIGEKLAQNAEDVYEAVRTQSQLAVRIRRGSETLTLYVTPEVTE

Source: article PMC4560422
